In article PMC5895705:
Results are given in words; binding and its absence hold for the method and conditions named. Some binding calls cover weakened binding; strength is not graded here.

The chains behind the UniProt entries cited, without tags or fusion partners. Where a name states a change or a piece, a line headed by the entry shows the natural chain unless it says otherwise.
UniProt P0A6Y8: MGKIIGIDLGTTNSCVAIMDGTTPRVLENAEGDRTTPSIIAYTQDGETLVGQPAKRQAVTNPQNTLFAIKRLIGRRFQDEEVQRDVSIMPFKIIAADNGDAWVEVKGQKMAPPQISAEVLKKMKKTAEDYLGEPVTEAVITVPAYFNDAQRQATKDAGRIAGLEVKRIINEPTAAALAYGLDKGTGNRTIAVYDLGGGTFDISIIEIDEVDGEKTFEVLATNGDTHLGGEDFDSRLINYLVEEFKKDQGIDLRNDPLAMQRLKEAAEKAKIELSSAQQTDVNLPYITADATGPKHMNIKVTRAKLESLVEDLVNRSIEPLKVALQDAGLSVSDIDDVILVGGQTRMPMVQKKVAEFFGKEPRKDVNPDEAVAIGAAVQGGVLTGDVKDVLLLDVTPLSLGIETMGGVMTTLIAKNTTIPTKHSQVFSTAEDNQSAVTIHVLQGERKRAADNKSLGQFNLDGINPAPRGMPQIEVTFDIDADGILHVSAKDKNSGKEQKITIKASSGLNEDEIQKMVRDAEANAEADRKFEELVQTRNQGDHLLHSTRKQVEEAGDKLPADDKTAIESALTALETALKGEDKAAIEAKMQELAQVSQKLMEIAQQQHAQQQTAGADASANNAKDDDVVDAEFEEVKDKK
UniProt P63284: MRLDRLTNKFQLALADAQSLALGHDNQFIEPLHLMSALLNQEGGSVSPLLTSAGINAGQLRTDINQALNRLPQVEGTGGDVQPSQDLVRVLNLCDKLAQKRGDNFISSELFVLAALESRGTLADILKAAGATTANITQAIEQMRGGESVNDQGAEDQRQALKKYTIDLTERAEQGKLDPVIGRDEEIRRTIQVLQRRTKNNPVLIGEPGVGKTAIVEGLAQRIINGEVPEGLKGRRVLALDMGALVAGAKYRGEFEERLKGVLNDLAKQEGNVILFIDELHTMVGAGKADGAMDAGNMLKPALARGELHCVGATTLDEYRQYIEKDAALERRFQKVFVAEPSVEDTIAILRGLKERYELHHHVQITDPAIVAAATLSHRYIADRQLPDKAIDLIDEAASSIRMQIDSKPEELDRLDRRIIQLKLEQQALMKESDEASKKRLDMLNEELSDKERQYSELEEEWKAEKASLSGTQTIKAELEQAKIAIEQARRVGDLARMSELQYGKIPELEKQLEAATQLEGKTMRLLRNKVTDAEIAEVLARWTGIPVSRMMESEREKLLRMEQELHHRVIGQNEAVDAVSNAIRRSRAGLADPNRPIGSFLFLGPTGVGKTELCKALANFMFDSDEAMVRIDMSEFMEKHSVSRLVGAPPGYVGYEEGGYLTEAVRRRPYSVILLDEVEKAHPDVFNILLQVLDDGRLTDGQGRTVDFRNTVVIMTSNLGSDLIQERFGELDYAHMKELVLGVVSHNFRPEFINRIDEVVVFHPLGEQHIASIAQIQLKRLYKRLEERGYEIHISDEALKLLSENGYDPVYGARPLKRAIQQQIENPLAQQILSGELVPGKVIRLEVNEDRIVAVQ

What was measured:
[1] = biological target: DnaK, wild type (E. coli) (UniProt P0A6Y8); assay: co-sedimentation; 1 µM G6PDH50 aggregates, 3 mM ATP, 0.7 µM DnaJ, 3.5 µM DnaK and 5 µM ΔN/ΔM-ClpB, 10 min in refolding buffer, centrifuged; pellets on 4-12% Bis-Tris NuPAGE; ClpB in the pellet compared with and without DnaK; native G6PDH as control; both purified
[2] = biological target: DnaK, wild type (E. coli) (UniProt P0A6Y8); assay: co-sedimentation; G6PDH50 aggregates (1 μM) incubated 10 min at 30 °C in refolding buffer with DnaJ, 3.5 μM wt DnaK or variant, with or without 5 μM wt or mutant ClpB, 3 mM ATP with regenerating system, no GrpE; 122,000 x g, 40 min, 4 °C; pellets on SDS-PAGE or NuPAGE, densitometry, controls with native G6PDH subtracted; both purified

binding [2] | Substance | binding [1]
– | ΔN/ΔM-ClpB (ClpB Δ(1–142;410–520)) (from UniProt P63284 143-857) (domain or fragment) | no binding (tested: 5 µM ΔN/ΔM-ClpB, 3.5 µM DnaK)
binds | ClpB heterohexamers of wt and ΔM-ClpB subunits (from UniProt P63284 1-857; P63284 1-857) (complex) | –
